# Source: the supplement of paper PMC8728848
# Some of the results follow.
# Tests used:
# Assay in all cases: glycan array binding signal (z-score within array); higher = stronger binding
# Conditions in all cases: glycan notation: IUPAC condensed, linker removed
# [1] = target: Neu5Ac(a2-6)GlcNAc(b1-4)GlcNAc
# Outline: (§1)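 Negative Z-scores can be read as non-binding. The Z-score is calculated within each array and then averaged across arrays of one protein sequence at different concentrations or buffers and across linkers. Arrays, 3228 in all, were curated from the Consortium for Functional Glycomics database and kept only where the protein sequence was available.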
# [2] = target: Neu5Ac(a2-6)GlcNAc(b1-4)GlcNAc(b1-4)GlcNAc
# Outline: as §1
# [3] = target: Neu5Ac(a2-8)Neu5Ac
# Outline: as §1
# [4] = target: Neu5Ac(a2-8)Neu5Ac(a2-3)Gal(b1-3)GalNAc(b1-4)[Neu5Ac(a2-3)]Gal(b1-4)Glc
# Outline: as §1
# [5] = target: Neu5Ac(a2-8)Neu5Ac(a2-3)Gal(b1-3)GalNAc(b1-4)[Neu5Ac(a2-8)Neu5Ac(a2-3)]Gal(b1-4)Glc
# Outline: as §1
# [6] = target: Neu5Ac(a2-8)Neu5Ac(a2-3)Gal(b1-4)Glc
# Outline: as §1
# [7] = target: Neu5Ac(a2-8)Neu5Ac(a2-3)Gal(b1-4)GlcNAc
# Outline: as §1
# [8] = target: Neu5Ac(a2-8)Neu5Ac(a2-3)[Gal(b1-3)GalNAc(b1-4)]Gal(b1-4)Glc
# Outline: as §1
# [9] = target: Neu5Ac(a2-8)Neu5Ac(a2-3)[GalNAc(b1-4)]Gal(b1-4)Glc
# Outline: as §1
# [10] = target: Neu5Ac(a2-8)Neu5Ac(a2-8)Neu5Ac
# Outline: as §1
# [11] = target: Neu5Ac(a2-8)Neu5Ac(a2-8)Neu5Ac(a2-3)Gal(b1-4)Glc
# Outline: as §1
# [12] = target: Neu5Ac(a2-8)Neu5Ac(a2-8)Neu5Ac(a2-3)[Gal(b1-3)GalNAc(b1-4)]Gal(b1-4)Glc
# Outline: as §1
# [13] = target: Neu5Ac(a2-8)Neu5Ac(a2-8)Neu5Ac(a2-3)[GalNAc(b1-4)]Gal(b1-4)Glc
# Outline: as §1
# [14] = target: Neu5Ac(a2-8)Neu5Ac(a2-8)Neu5Ac(a2-8)Neu5Ac(a2-3)[GalNAc(b1-4)]Gal(b1-4)Glc
# Outline: as §1
# [15] = target: Neu5Ac(a2-8)Neu5Gc(a2-3)Gal(b1-4)GlcNAc
# Outline: as §1
# [16] = target: Neu5Ac(b2-6)Gal(b1-4)GlcNAc
# Outline: as §1
# [17] = target: Neu5Ac(b2-6)GalNAc
# Outline: as §1
# [18] = target: Neu5Ac9Ac(a2-3)Gal(b1-3)GlcNAc
# Outline: as §1
# [19] = target: Neu5Ac9Ac(a2-3)Gal(b1-4)GlcNAc
# Outline: as §1
# [20] = target: Neu5Ac9Ac(a2-6)Gal(b1-4)GlcNAc
# Outline: as §1
# [21] = target: Neu5Gc(a2-3)Gal(b1-3)GlcNAc
# Outline: as §1
# [22] = target: Neu5Gc(a2-3)Gal(b1-3)[Fuc(a1-4)]GlcNAc
# Outline: as §1
# [23] = target: Neu5Gc(a2-3)Gal(b1-4)Glc
# Outline: as §1
# [24] = target: Neu5Gc(a2-3)Gal(b1-4)GlcNAc
# Outline: as §1
# [25] = target: Neu5Gc(a2-3)Gal(b1-4)GlcNAc(b1-3)Gal(b1-4)GlcNAc(b1-2)Man(a1-3)[Neu5Gc(a2-3)Gal(b1-4)GlcNAc(b1-3)Gal(b1-4)GlcNAc(b1-2)Man(a1-6)]Man(b1-4)GlcNAc(b1-4)GlcNAc
# Outline: as §1
# [26] = target: Neu5Gc(a2-3)Gal(b1-4)[Fuc(a1-3)]GlcNAc
# Outline: as §1
# [27] = target: Neu5Gc(a2-6)Gal(b1-4)GlcNAc
# Outline: as §1
# [28] = target: Neu5Gc(a2-6)GalNAc
# Outline: as §1
# [29] = target: Neu5Gc(a2-8)Neu5Ac(a2-3)Gal(b1-4)GlcNAc
# Outline: as §1
# [30] = target: Neu5Gc(a2-8)Neu5Gc(a2-3)Gal(b1-4)GlcNAc
# Outline: as §1
# [31] = target: Neu5Gc(a2-8)Neu5Gc(a2-3)Gal(b1-4)GlcNAc(b1-3)Gal(b1-4)GlcNAc
# Outline: as §1
# [32] = target: Neu5Gc(a2-8)Neu5Gc(a2-6)Gal(b1-4)GlcNAc
# Outline: as §1
# [33] = target: Neu5Gc(b2-6)Gal(b1-4)GlcNAc
# Outline: as §1
binder,measurement,setting,value
"AT3G44510(29) (Arabidopsis thaliana), F4J341 (protein) MEEHLQGRIKLHDGRYLAYKERGVPKDDAKFTIVLVHGFGSSKDMNFNVSQELVNEIGIYFVLYDRAGYGESDPNPKRSLKSEAYDVQELADGLEIGSRFYLIGISMGSYTVWSCLKHIPQRLAGVAMVAPVVNFRWPSIPKSLMPKDYRREVAKWSVWIANYFPGLLQWLVTQNMFSTTSMLEKNPVYFNDQDIEVLKHIKGFPMLTKEKLRERGVFGTLRSDFLVAFGDWDFDPADLPDPSLSGPEKGSSSVHIWQGYEDKVMPFQLQRCLCRKLPWIRYHEVPKGGHLIVHYDGICDAILKSLLLGEDLPMYKPKAVITEPA",glycan array binding signal (z-score),[1],-0.656
same,glycan array binding signal (z-score),[2],-0.287
same,glycan array binding signal (z-score),[3],-0.587
same,glycan array binding signal (z-score),[4],-0.267
same,glycan array binding signal (z-score),[5],-0.159
same,glycan array binding signal (z-score),[6],-0.403
same,glycan array binding signal (z-score),[7],-0.423
same,glycan array binding signal (z-score),[8],-0.477
same,glycan array binding signal (z-score),[9],0.865
same,glycan array binding signal (z-score),[10],-0.439
same,glycan array binding signal (z-score),[11],0.131
same,glycan array binding signal (z-score),[12],-0.371
same,glycan array binding signal (z-score),[13],0.222
same,glycan array binding signal (z-score),[14],-0.387
same,glycan array binding signal (z-score),[15],-0.685
same,glycan array binding signal (z-score),[16],-0.415
same,glycan array binding signal (z-score),[17],-0.507
same,glycan array binding signal (z-score),[18],0.035
same,glycan array binding signal (z-score),[19],-0.419
same,glycan array binding signal (z-score),[20],-0.566
same,glycan array binding signal (z-score),[21],-0.612
same,glycan array binding signal (z-score),[22],-0.708
same,glycan array binding signal (z-score),[23],-0.378
same,glycan array binding signal (z-score),[24],-0.399
same,glycan array binding signal (z-score),[25],-0.365
same,glycan array binding signal (z-score),[26],-0.402
same,glycan array binding signal (z-score),[27],0
same,glycan array binding signal (z-score),[28],-0.783
same,glycan array binding signal (z-score),[29],-0.274
same,glycan array binding signal (z-score),[30],-0.451
same,glycan array binding signal (z-score),[31],0.206
same,glycan array binding signal (z-score),[32],1.09
same,glycan array binding signal (z-score),[33],-0.149

# Taken from the results shown (two entries):
binder,measurement,setting,value
"AT3G44510(29) (Arabidopsis thaliana), F4J341 (protein) MEEHLQGRIKLHDGRYLAYKERGVPKDDAKFTIVLVHGFGSSKDMNFNVSQELVNEIGIYFVLYDRAGYGESDPNPKRSLKSEAYDVQELADGLEIGSRFYLIGISMGSYTVWSCLKHIPQRLAGVAMVAPVVNFRWPSIPKSLMPKDYRREVAKWSVWIANYFPGLLQWLVTQNMFSTTSMLEKNPVYFNDQDIEVLKHIKGFPMLTKEKLRERGVFGTLRSDFLVAFGDWDFDPADLPDPSLSGPEKGSSSVHIWQGYEDKVMPFQLQRCLCRKLPWIRYHEVPKGGHLIVHYDGICDAILKSLLLGEDLPMYKPKAVITEPA",glycan array binding signal (z-score),[28],-0.783
same,glycan array binding signal (z-score),[29],-0.274
